Assay results taken from article PMC3498327.
Results are given in words; binding and its absence hold for the method and conditions named. In cells and extracts the contact can be indirect. Some binding calls cover weakened binding; strength is not graded here.

Amino acid sequences for entries named in this document (tags omitted).
UniProt Q60974: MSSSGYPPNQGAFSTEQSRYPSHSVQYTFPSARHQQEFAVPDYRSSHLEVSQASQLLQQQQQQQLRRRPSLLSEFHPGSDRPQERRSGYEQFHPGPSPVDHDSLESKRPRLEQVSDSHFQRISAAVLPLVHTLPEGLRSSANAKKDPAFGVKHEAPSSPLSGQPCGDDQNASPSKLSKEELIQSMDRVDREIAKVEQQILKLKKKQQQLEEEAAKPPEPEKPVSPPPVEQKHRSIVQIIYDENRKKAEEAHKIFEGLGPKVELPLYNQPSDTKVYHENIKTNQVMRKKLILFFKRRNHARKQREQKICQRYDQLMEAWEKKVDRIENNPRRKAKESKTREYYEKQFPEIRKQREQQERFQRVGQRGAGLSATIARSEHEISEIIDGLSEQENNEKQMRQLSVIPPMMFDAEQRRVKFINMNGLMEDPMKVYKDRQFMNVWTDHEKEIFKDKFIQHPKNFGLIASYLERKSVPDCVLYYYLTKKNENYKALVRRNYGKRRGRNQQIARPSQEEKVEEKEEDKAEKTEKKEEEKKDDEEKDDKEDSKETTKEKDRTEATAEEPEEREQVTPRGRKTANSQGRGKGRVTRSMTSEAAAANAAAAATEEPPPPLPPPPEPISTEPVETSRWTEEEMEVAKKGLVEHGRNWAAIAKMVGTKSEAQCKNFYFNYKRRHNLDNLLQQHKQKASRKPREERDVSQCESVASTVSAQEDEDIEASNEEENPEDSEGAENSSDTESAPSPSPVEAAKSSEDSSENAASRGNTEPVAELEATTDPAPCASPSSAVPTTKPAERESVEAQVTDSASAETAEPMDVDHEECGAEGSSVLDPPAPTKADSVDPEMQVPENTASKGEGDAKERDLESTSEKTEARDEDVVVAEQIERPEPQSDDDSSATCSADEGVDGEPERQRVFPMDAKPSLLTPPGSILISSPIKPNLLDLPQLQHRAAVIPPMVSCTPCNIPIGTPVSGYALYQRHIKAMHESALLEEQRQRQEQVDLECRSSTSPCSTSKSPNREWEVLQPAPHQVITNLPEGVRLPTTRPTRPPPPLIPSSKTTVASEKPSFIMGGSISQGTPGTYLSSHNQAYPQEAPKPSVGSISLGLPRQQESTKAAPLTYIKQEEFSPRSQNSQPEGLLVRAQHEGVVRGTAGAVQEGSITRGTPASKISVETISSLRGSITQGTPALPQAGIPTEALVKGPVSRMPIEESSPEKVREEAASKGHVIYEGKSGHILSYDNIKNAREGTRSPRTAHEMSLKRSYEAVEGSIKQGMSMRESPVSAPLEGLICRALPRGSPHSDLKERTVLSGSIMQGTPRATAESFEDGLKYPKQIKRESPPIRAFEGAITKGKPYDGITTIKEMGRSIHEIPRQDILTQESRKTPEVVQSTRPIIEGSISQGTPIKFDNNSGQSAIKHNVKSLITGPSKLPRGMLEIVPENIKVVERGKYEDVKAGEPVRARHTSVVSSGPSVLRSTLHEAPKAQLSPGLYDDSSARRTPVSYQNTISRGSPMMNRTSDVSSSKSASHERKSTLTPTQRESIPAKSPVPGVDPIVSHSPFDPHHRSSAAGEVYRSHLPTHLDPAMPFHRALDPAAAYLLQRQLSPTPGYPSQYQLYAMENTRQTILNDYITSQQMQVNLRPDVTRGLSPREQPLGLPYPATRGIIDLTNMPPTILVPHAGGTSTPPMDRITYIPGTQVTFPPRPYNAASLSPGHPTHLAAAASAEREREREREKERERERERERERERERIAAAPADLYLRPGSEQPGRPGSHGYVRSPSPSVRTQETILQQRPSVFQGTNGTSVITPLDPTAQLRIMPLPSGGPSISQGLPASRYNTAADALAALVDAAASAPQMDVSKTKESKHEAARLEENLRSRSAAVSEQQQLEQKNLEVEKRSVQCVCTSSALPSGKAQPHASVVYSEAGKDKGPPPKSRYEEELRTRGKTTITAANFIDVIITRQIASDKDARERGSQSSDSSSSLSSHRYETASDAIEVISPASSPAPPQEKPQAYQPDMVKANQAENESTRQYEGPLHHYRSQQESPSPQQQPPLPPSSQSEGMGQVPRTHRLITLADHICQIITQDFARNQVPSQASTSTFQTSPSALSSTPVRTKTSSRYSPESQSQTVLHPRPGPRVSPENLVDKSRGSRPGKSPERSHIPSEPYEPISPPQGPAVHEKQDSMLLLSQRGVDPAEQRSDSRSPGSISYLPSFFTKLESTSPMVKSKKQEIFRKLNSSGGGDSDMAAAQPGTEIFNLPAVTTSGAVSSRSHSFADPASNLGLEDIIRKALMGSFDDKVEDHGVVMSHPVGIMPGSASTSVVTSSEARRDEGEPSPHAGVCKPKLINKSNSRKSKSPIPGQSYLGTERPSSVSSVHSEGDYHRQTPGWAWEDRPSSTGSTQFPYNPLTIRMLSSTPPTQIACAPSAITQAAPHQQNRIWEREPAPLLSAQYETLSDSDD
UniProt P37238: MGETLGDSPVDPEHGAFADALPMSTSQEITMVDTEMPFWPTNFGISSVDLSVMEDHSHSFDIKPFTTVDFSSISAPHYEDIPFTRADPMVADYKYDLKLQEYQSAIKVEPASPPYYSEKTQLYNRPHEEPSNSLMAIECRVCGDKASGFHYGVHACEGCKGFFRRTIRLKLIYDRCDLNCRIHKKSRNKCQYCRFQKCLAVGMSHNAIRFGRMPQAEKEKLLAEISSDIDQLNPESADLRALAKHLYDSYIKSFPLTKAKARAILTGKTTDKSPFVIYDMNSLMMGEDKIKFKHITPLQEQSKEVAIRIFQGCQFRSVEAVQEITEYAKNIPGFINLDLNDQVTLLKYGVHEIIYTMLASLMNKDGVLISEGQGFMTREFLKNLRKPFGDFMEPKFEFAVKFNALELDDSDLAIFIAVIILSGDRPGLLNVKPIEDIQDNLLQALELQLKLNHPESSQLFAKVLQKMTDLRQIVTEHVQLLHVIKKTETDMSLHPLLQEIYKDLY

Target: T1, Sirtuin 1 (SIRT1) (mouse (endogenous in 3T3-L1)) (UniProt Q923E4)
T1 sequence: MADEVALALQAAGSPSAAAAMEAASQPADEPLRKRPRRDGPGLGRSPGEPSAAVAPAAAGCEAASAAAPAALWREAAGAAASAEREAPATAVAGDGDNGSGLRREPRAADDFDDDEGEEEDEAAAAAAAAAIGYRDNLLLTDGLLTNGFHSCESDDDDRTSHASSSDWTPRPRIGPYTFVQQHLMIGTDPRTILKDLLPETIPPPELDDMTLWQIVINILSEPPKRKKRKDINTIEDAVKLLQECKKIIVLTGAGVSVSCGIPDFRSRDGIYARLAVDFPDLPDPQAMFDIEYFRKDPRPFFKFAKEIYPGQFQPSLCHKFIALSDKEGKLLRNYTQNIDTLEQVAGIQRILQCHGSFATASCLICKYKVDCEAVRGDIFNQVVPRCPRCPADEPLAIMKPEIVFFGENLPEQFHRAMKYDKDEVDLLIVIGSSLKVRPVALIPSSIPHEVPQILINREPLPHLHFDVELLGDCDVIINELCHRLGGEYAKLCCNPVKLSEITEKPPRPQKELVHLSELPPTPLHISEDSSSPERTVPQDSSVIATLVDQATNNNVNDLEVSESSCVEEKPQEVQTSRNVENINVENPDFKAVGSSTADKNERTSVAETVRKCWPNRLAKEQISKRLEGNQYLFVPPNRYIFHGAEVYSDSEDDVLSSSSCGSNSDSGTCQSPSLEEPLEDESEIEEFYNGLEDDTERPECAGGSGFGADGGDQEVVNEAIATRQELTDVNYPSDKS
Experiment: co-IP; nuclear extracts of differentiated 3T3-L1 adipocytes treated with 100 µmol/L LA or t10c12 CLA for 12 h; immunoprecipitated overnight with antibody to SIRT1, protein A agarose beads, washed five times; immunoblot for SIRT1, PPARγ or NCoR1

With “nuclear receptor corepressor 1 (NCoR1) (from UniProt Q60974 1-2453)” as the substance, how does the binding read?
The binding was “binds”.

Which binding does the source give for “peroxisome proliferator-activated receptor γ (PPARγ) (from UniProt P37238 1-505)” here?
The binding was “binds”.
